Taken from: PubChem BioAssay AID602196 (INSERM, 2012)

- Test: 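Knock-downs that protect lung cancer cells from cisplatin or sensitise them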
- System: human A549 lung cancer cells
- Reagent: siRNA pair against human genes
- Time to read-out: 48 h transfection before cisplatin; time from cisplatin to read-out not stated
- Challenge: cisplatin at a dose killing half of control-siRNA cells; exact dose and duration not given
- Measured: 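Cisplatin cell death as a shift from the 50% death seen with control siRNA; siRNAs toxic or growth-blocking alone scored 0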
- Scale: two-siRNA summed score (-2 to +2): higher = both siRNAs protect from cisplatin killing; -2 means both sensitise; mean protection from cisplatin (shift in death): higher = protection from cisplatin killing
- Active means: 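Each siRNA scores 0 if harmful alone by LDH or WST-1, otherwise +1 if it reduces and -1 if it increases cisplatin killing; a gene is active when both siRNAs agree (sum +2 or -2)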
- Meaning of the calls: active = both siRNAs shift cisplatin killing the same way; inactive = no consistent shift, or siRNA harmful alone
This is one part, drawn at random, of about 23,000 deposited reagents. In the full data, 455 (2%) got an active call. 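Active includes both protection and sensitisation; some change values fall well beyond the stated -50 to +50 range.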 Not all columns of the deposit are shown. The record does not give: the amount of reagent.

With knock-down of CDH4 the results were two-siRNA summed score (-2 to +2) = 0; mean protection from cisplatin (shift in death) (%) = 0.1; inactive.
C2CD2 scored two-siRNA summed score (-2 to +2) = -1; mean protection from cisplatin (shift in death) (%) = -13; inactive.
Knock-down of ENTPD7 resulted in: two-siRNA summed score (-2 to +2) = 0; mean protection from cisplatin (shift in death) (%) = 8.5; inactive.
After knock-down of IFITM2, the record shows two-siRNA summed score (-2 to +2) = 0; mean protection from cisplatin (shift in death) (%) = 18.5; inactive.
Silencing of LOC442424 came out at: two-siRNA summed score (-2 to +2) = 0; mean protection from cisplatin (shift in death) (%) = 9.7; inactive.
After knock-down of SCOC, the record shows two-siRNA summed score (-2 to +2) = 0; mean protection from cisplatin (shift in death) (%) = -3.5; inactive.
DNAJB3P showed two-siRNA summed score (-2 to +2) = 0; mean protection from cisplatin (shift in death) (%) = 12.5; inactive.
After knock-down of LOC401676 (retired record), the screen gave two-siRNA summed score (-2 to +2) = 2; mean protection from cisplatin (shift in death) (%) = 13.5; active.
With knock-down of FUT8, the record shows two-siRNA summed score (-2 to +2) = 0; mean protection from cisplatin (shift in death) (%) = 7.8; inactive.
For EWSR1, the entry reads two-siRNA summed score (-2 to +2) = -1; mean protection from cisplatin (shift in death) (%) = -3.3; inactive.
For ZCWPW1, the values are two-siRNA summed score (-2 to +2) = 0; mean protection from cisplatin (shift in death) (%) = 4.8; inactive.
TRIM36 gave two-siRNA summed score (-2 to +2) = 0; mean protection from cisplatin (shift in death) (%) = 0.8; inactive.

2 entries from above, ordered by “mean protection from cisplatin (shift in death) (%)”, low to high.
C2CD2 | two-siRNA summed score (-2 to +2) = -1; mean protection from cisplatin (shift in death) (%) = -13; call = inactive
ENTPD7 | two-siRNA summed score (-2 to +2) = 0; mean protection from cisplatin (shift in death) (%) = 8.5; call = inactive
